Consider four substances from US20240409598A1 (Janssen Biotech, Inc., priority 2021, published 2024).

Where only a bound is given, the exact number is not on record here.

The nature of this series: general procedure: Fmoc solid-phase peptide synthesis; Rink Amide MBHA resin (100-200 mesh, 0.57 mmol/g or 0.66 mmol/g) for C-terminal amides; pre-loaded Wang resin for C-term; HBTU/DIEA; PyAOP/DIEA for some couplings; Oxyma/DIC (microwave); HATU/DIEA in Ex. Conditions: for oxidative folding yield: oxidative folding step, for this step.
The mark [1] stands for this setting: TFA salt, counterion exchange to acetate for SEQ ID NO: 1, one disulfide bridge, sequence written open.
Where [2] appears, read: whole synthesis, Analytical RP-HPLC, Gemini C18 column (4.6 mm x 250 mm), TFA salt, counterion exchange to acetate for SEQ ID NO: 1, one disulfide bridge, sequence written open.
Where [3] appears, read: whole synthesis, overall, TFA salt, counterion exchange to acetate for SEQ ID NO: 1, one disulfide bridge, sequence written open.
[4] abbreviates: whole synthesis, TFA salt, counterion exchange to acetate for SEQ ID NO: 1, thioether ring, sequence written open.

In the case of “Ac-[Pen]*-N-T-[W (7-Me)]-[Lys(Ac)]-[Pen]*-Phe [4-(2-aminoethoxy)]-[2-Nal]-[THP]-E-N-[3-Pal]-Sarc-NH2 (*Pen-Pen form disulfide bond)”, the “final HPLC purity” value (whole synthesis, Analytical RP-HPLC, Gemini C18 column (4.6 mm x 250 mm), acetate) was greater than 95%.

Consider “MeCO-Pen-N-T-7MeW-K(Ac)-Pen-AEF(G)-2Nal-THP-E-N-3Pya-Sar-CONH2”, for which the oxidative folding yield under setting [1] worked out at 31.0%. In addition, the “final purity (method not given)” value under setting [2] is reported as 96.4%. Also, under setting [3], the isolated yield is listed as 25.5%.

In the case of “MeCO-r-Abu (1)-N-T-W-K(Ac)-aMeC (1)-AEF-2Nal-THP-E-N-3Pya-Sar-CONH2”, the “final purity (method not given)” value (whole synthesis, Analytical RP-HPLC, Gemini C18 column (4.6 mm x 250 mm), TFA salt, counterion exchange to acetate for SEQ ID NO: 1, thioether ring, sequence written open) worked out at 95.2%. Further, under setting [4], the crude yield is 75.7% and the isolated yield was determined as 6.72%.

In the case of “MeCO-r-Pen-N-T-7MeW-K(Ac)-Pen-AEF-2Nal-THP-E-N-5MePyridinAla-Sar-CONH2”, the oxidative folding yield under setting [1] came to 17.0%. Moreover, under setting [2], the “final purity (method not given)” value is on record as 96.4%. Moreover, the isolated yield under setting [3] was 14.8%.
